Assay results from the supplement of paper PMC4604168 (melanoma cell lines).
Some of the results follow. Many values rest on one well or one pass, so single values are uncertain.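 The apoptosis fraction was the count of cleaved-PARP antibody-stained nuclei relative to all DNA-stained nuclei, imaged in 1,536-well plates. Screening doses were set so most cells survived, and baseline and induced cleaved-PARP levels vary greatly across cell lines.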

Legend:
Assay in all cases: cleaved PARP positive nuclei fraction relative to DMSO control; melanoma cells; higher = more apoptosis
Settings in all cases: library dose: low library concentration; 72 h
WM115 = tested on: WM115
WM1716 = tested on: WM1716
WM1745 = tested on: WM1745
WM3526 = tested on: WM3526
WM3619 = tested on: WM3619
WM451Lu = tested on: WM451Lu

SMILES	cleaved PARP positive nuclei fraction (WM115) [%]	cleaved PARP positive nuclei fraction (WM1716) [%]	cleaved PARP positive nuclei fraction (WM1745) [%]	cleaved PARP positive nuclei fraction (WM3526) [%]	cleaved PARP positive nuclei fraction (WM3619) [%]	cleaved PARP positive nuclei fraction (WM451Lu) [%]
Cc1ccc(Nc2nccc(N(C)c3ccc4c(C)n(C)nc4c3)n2)cc1S(N)(=O)=O [Pazopanib] + O=C(Nc1cccc(Cl)c1)Nc1ncc(CCNc2ncnc3ccsc23)s1 [SNS314] (first compound 0.4 µM, partner dose 0.0008 µM)	180	160	99.5	67.5	109	109
O=C(Nc1cc(C(F)(F)F)cc(C(F)(F)F)c1)c1cc(Cl)ccc1O + CC1(C)NC(=O)N(c2ccc([N+](=O)[O-])c(C(F)(F)F)c2)C1=O [nilutamide] (first compound 0.016 µM, partner dose 1 µM)	102	43.5	82.2	98.8	80.5	52.5
Cc1cc(Nc2cc(N3CCN(C)CC3)nc(Sc3ccc(NC(=O)C4CC4)cc3)n2)n[nH]1 [Tozasertib] + O=C(CCCCCCC(=O)Nc1ccccc1)NO [vorinostat] (first compound 0.006 µM, partner dose 0.08 µM)	151	39.2	99.1	171	109	76.6
COc1cc([C@@H]2c3cc4c(cc3[C@@H](O[C@@H]3O[C@@H]5CO[C@@H](C)O[C@H]5[C@H](O)[C@H]3O)[C@H]3COC(=O)[C@H]23)OCO4)cc(OC)c1O [etoposide] + CC1(C)NC(=O)N(c2ccc([N+](=O)[O-])c(C(F)(F)F)c2)C1=O [nilutamide] (first compound 0.02 µM, partner dose 1 µM)	110	99.5	95	55.3	106	–
O=c1[nH]nc(Sc2ncc([N+](=O)[O-])s2)n1-c1ccc2c(c1)OCCO2 + Cc1nc(Nc2ncc(C(=O)Nc3c(C)cccc3Cl)s2)cc(N2CCN(CCO)CC2)n1 [dasatanib] (first compound 0.2 µM, partner dose 0.004 µM)	108	91.5	121	26.5	96.7	177
O=C(Nc1cc(C(F)(F)F)cc(C(F)(F)F)c1)c1cc(Cl)ccc1O + Oc1cc(-c2nc(-c3ccccc3)[nH]c2-c2ccncc2)ccc1Cl [L779450] (first compound 0.016 µM, partner dose 0.2 µM)	120	75.1	87.9	108	109	40.1
CCCCCCCCCCCCCCCCCCOP(=O)([O-])OC1CC[N+](C)(C)CC1 [Perifosine] + O=c1cc(-c2cccc3c2Sc2ccccc2S3)oc(N2CCOCC2)c1 [KU55933] (first compound 0.4 µM, partner dose 1 µM)	132	93.1	118	104	102	148
COc1cc([C@@H]2c3cc4c(cc3[C@@H](O[C@@H]3O[C@@H]5CO[C@@H](C)O[C@H]5[C@H](O)[C@H]3O)[C@H]3COC(=O)[C@H]23)OCO4)cc(OC)c1O [etoposide] + C[C@@H](N)c1ccc(C(=O)Nc2ccnc3[nH]ccc23)cc1 [RKI983] (first compound 0.02 µM, partner dose 0.4 µM)	102	30.5	106	47.7	84.6	–
N#CC[C@H](C1CCCC1)n1cc(-c2ncnc3[nH]ccc23)cn1 [ruxolitinib] + O=C(Nc1cc(C(F)(F)F)cc(C(F)(F)F)c1)c1cc(Cl)ccc1O [IMD0354] (first compound 1 µM, partner dose 0.016 µM)	112	996	94	81.6	98.5	80.9
CCCCCCCCCCCCCCCCCCOP(=O)([O-])OC1CC[N+](C)(C)CC1 [Perifosine] + CC(=O)c1c(C)c2cnc(Nc3ccc(N4CCNCC4)cn3)nc2n(C2CCCC2)c1=O [palbociclib] (first compound 0.4 µM, partner dose 0.04 µM)	75.7	197	120	182	115	23.5
CCCCCCCCCCCCCCCCCCOP(=O)([O-])OC1CC[N+](C)(C)CC1 [Perifosine] + C[C@@H](N)c1ccc(C(=O)Nc2ccnc3[nH]ccc23)cc1 [RKI983] (first compound 0.4 µM, partner dose 0.4 µM)	123	116	101	87.3	106	61.6
O=C(/C=C/c1cccnc1)NCCCCC1CCN(C(=O)c2ccccc2)CC1 + COc1cc(Nc2ncc(F)c(Nc3ccc4c(n3)NC(=O)C(C)(C)O4)n2)cc(OC)c1OC [Tamatinib] (first compound 0.01 µM, partner dose 0.4 µM)	446	205	118	61.9	206	64.8
COc1cc([C@@H]2c3cc4c(cc3[C@@H](O[C@@H]3O[C@@H]5CO[C@@H](C)O[C@H]5[C@H](O)[C@H]3O)[C@H]3COC(=O)[C@H]23)OCO4)cc(OC)c1O [etoposide] + Nc1ccn([C@@H]2O[C@H](CO)[C@@H](O)C2(F)F)c(=O)n1 [gemcitabine] (first compound 0.02 µM, partner dose 0.0004 µM)	120	156	108	49	–	–
COc1cc([C@@H]2c3cc4c(cc3[C@@H](O[C@@H]3O[C@@H]5CO[C@@H](C)O[C@H]5[C@H](O)[C@H]3O)[C@H]3COC(=O)[C@H]23)OCO4)cc(OC)c1O [etoposide] + CCCCCCCCCCCC1=C(O)C(=O)C=C(O)C1=O [Embelin] (first compound 0.02 µM, partner dose 1.2 µM)	128	319	98.4	67.4	101	128
Cc1ccc(Nc2nccc(N(C)c3ccc4c(C)n(C)nc4c3)n2)cc1S(N)(=O)=O [Pazopanib] + COc1cc2c(Oc3ccc4[nH]c(C)cc4c3F)ncnc2cc1OCCCN1CCCC1 [cediranib] (first compound 0.4 µM, partner dose 0.4 µM)	75.8	204	94.5	72.1	106	65
O=c1[nH]nc(Sc2ncc([N+](=O)[O-])s2)n1-c1ccc2c(c1)OCCO2 + C#Cc1cccc(Nc2ncnc3cc(OCCOC)c(OCCOC)cc23)c1 [erlotinib] (first compound 0.2 µM, partner dose 0.8 µM)	82.2	181	111	19	92.8	107
O=C(Nc1cc(C(F)(F)F)cc(C(F)(F)F)c1)c1cc(Cl)ccc1O + Cc1cn(-c2cc(NC(=O)c3ccc(C)c(Nc4nccc(-c5cccnc5)n4)c3)cc(C(F)(F)F)c2)cn1 [nilotinib] (first compound 0.016 µM, partner dose 0.2 µM)	119	282	102	75.6	82.2	93.8
O=C(Nc1cc(C(F)(F)F)cc(C(F)(F)F)c1)c1cc(Cl)ccc1O + NC1(c2ccc(-c3nc4ccn5c(=O)[nH]nc5c4cc3-c3ccccc3)cc2)CCC1 [MK2206] (first compound 0.016 µM, partner dose 0.4 µM)	136	72	103	156	86.1	70
CC[C@]1(O)C[C@H]2CN(CCc3c([nH]c4ccccc34)[C@@](C(=O)OC)(c3cc4c(cc3OC)N(C=O)[C@H]3[C@@](O)(C(=O)OC)[C@H](OC(C)=O)[C@]5(CC)C=CCN6CC[C@]43[C@@H]65)C2)C1 [vincristine] + O=C(/C=C/c1cccnc1)NCCCCC1CCN(C(=O)c2ccccc2)CC1 [FK866] (first compound 0.0001 µM, partner dose 0.01 µM)	436	146	105	34.3	172	175
CCCCCCCCCCCCCCCCCCOP(=O)([O-])OC1CC[N+](C)(C)CC1 [Perifosine] + C[C@]1(c2nc3c(C(N)=O)cccc3[nH]2)CCCN1 [Veliparib] (first compound 0.4 µM, partner dose 1.4 µM)	163	90.6	115	63.4	134	54.8
Cc1cn(-c2cc(NC(=O)c3ccc(C)c(Nc4nccc(-c5cccnc5)n4)c3)cc(C(F)(F)F)c2)cn1 [nilotinib] + COC(=O)c1sccc1S(=O)(=O)Nc1ccc(Nc2ccccc2)cc1OC [GSK0660] (first compound 0.2 µM, partner dose 1 µM)	46	34.5	95.4	77.2	99.1	26
COc1cc([C@@H]2c3cc4c(cc3[C@@H](O[C@@H]3O[C@@H]5CO[C@@H](C)O[C@H]5[C@H](O)[C@H]3O)[C@H]3COC(=O)[C@H]23)OCO4)cc(OC)c1O [etoposide] + NC(=O)Nc1cc(-c2cccc(F)c2)sc1C(=O)N[C@H]1CCCNC1 [AZD7762] (first compound 0.02 µM, partner dose 0.02 µM)	220	154	106	63.7	242	118
O=C(Nc1cc(C(F)(F)F)cc(C(F)(F)F)c1)c1cc(Cl)ccc1O + Cn1cc(/C=C2\C(=O)Nc3cccnc32)c2ccccc21 [GW441756] (first compound 0.016 µM, partner dose 0.4 µM)	127	87.2	97.7	73.2	96.9	36.5
CCCCCCCCCCCCCCCCCCOP(=O)([O-])OC1CC[N+](C)(C)CC1 [Perifosine] + CCCCCCCCc1ccc(CCC(N)(CO)CO)cc1 [fingolimod] (first compound 0.4 µM, partner dose 2 µM)	99.1	108	99	45.7	178	22.6

Single records, from the list above. Values in the order: cleaved PARP positive nuclei fraction (WM115) [%] | cleaved PARP positive nuclei fraction (WM1716) [%] | cleaved PARP positive nuclei fraction (WM1745) [%] | cleaved PARP positive nuclei fraction (WM3526) [%] | cleaved PARP positive nuclei fraction (WM3619) [%] | cleaved PARP positive nuclei fraction (WM451Lu) [%]
Cc1cn(-c2cc(NC(=O)c3ccc(C)c(Nc4nccc(-c5cccnc5)n4)c3)cc(C(F)(F)F)c2)cn1 [nilotinib] + COC(=O)c1sccc1S(=O)(=O)Nc1ccc(Nc2ccccc2)cc1OC [GSK0660] (first compound 0.2 µM, partner dose 1 µM) reads 46 | 34.5 | 95.4 | 77.2 | 99.1 | 26
O=c1[nH]nc(Sc2ncc([N+](=O)[O-])s2)n1-c1ccc2c(c1)OCCO2 + Cc1nc(Nc2ncc(C(=O)Nc3c(C)cccc3Cl)s2)cc(N2CCN(CCO)CC2)n1 [dasatanib] (first compound 0.2 µM, partner dose 0.004 µM) reads 108 | 91.5 | 121 | 26.5 | 96.7 | 177
